Laboratory results reported in publication PMC11970399.
No constants are given. Whether binding was seen depends on the method and setting. Binding seen in cells or lysates may run through a third protein. Some results given as binding are weak or reduced against the parent protein; the word gives no strength.

Chains of the proteins cited; added tags and fusions are not shown.
UniProt Q13485: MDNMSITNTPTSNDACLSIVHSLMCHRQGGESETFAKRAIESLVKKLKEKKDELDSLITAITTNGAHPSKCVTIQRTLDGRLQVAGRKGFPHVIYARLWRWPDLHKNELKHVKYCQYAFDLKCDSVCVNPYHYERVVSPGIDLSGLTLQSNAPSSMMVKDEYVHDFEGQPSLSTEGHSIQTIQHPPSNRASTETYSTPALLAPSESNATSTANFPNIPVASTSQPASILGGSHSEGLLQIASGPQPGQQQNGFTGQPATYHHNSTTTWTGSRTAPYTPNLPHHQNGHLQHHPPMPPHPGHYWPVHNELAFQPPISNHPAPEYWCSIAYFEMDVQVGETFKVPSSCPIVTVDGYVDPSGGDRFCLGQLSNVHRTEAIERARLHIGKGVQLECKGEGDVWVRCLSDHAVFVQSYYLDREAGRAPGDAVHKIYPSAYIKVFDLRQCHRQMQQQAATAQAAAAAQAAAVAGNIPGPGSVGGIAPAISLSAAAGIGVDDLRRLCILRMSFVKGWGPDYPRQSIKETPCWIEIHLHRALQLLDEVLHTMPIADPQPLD

Biological target: T1, mitochondrial fission factor (MFF) (human (endogenous in primary CD4+ T cells)) (UniProt Q9GZY8)
T1 sequence: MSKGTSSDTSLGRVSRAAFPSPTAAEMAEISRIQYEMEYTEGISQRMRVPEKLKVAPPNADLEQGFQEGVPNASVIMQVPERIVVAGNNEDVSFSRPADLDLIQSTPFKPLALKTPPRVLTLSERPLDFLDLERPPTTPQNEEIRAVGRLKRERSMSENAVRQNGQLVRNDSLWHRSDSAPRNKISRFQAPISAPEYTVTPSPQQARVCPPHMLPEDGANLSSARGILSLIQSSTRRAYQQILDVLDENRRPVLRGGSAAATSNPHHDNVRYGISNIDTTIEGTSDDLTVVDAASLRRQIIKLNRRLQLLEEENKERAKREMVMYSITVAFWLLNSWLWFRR
Experiment: co-IP; IP of MFF from cleared lysates of 4 x 10^7 activated CD4+ T cells treated with PBS or TGF-β1 (10 ng/mL) for 2 h; IP lysis buffer 150 mM KCl, 1% Triton X-100, 50 mM Tris-HCl pH7.6, 1 mM EDTA, 10% glycerol; Protein A/G beads and antibody overnight at 4°C; immunoblot

binding: binds
Substance: SMAD4 (from UniProt Q13485 1-552)
